Results deposited as PubChem BioAssay AID1259425 (University of Nebraska Medical Center, 2018).

- Test: 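Find knockdowns that reproduce the gene expression pattern seen when KSR1 is lost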 (primary screen)
- Cell system: HCT116 human colon cancer cells
- Reagent: siRNA pool against human genes, 50 nM siRNA
- Measured: 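After 50 nM siRNA pool, branched-DNA assay measures six marker transcripts per well, minus blank, normalised to the geometric mean of two housekeeping transcripts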
- Reading the numbers: BNIP3L mRNA: higher = more BNIP3L transcript after knockdown; NDRG1 mRNA: higher = more NDRG1 transcript after knockdown
Here is an unselected part of about 14,000 reagents. Further read-outs or replicates are left out here. Not given: the time to read-out.

Against HYOU1 (GeneID 10525), the values are BNIP3L mRNA, set 1 = 0.112; NDRG1 mRNA, set 1 = 0.341.
With knock-down of LFNG (GeneID 3955), the record shows BNIP3L mRNA, set 1 = 0.0724; NDRG1 mRNA, set 1 = 0.412.
Against LIN37 (GeneID 55957), the entry reads BNIP3L mRNA, set 1 = 0.138; NDRG1 mRNA, set 1 = 0.282.
For KDM4B (GeneID 23030) the deposit lists BNIP3L mRNA, set 1 = 0.172; NDRG1 mRNA, set 1 = 0.184.
Against EGFR (GeneID 1956), the entry reads BNIP3L mRNA, set 1 = 0.0704; NDRG1 mRNA, set 1 = 0.103.
After knock-down of HCFC2 (GeneID 29915), the screen gave BNIP3L mRNA, set 1 = 0.0616; NDRG1 mRNA, set 1 = 0.139.
After knock-down of AFDN (GeneID 4301), the screen gave BNIP3L mRNA, set 1 = 0.0914; NDRG1 mRNA, set 1 = 0.161.
ABCA5 (GeneID 23461) showed BNIP3L mRNA, set 1 = 0.0728; NDRG1 mRNA, set 1 = 0.248.
Silencing of DIRAS2 (GeneID 54769) came out at: BNIP3L mRNA, set 1 = 0.0727; NDRG1 mRNA, set 1 = 0.233.

In a second layout: results already given.
{"target gene":"LIN37 (GeneID 55957)","BNIP3L mRNA, set 1":0.138,"NDRG1 mRNA, set 1":0.282}
{"target gene":"KDM4B (GeneID 23030)","BNIP3L mRNA, set 1":0.172,"NDRG1 mRNA, set 1":0.184}
{"target gene":"EGFR (GeneID 1956)","BNIP3L mRNA, set 1":0.0704,"NDRG1 mRNA, set 1":0.103}

Continued:
With knock-down of E2F3 (GeneID 1871), the record shows BNIP3L mRNA, set 1 = 0.0826; NDRG1 mRNA, set 1 = 0.151.
For DYNC2H1 (GeneID 79659), the values are BNIP3L mRNA, set 1 = 0.113; NDRG1 mRNA, set 1 = 0.101.
Knock-down of GPR37 (GeneID 2861) came out at: BNIP3L mRNA, set 1 = 0.455; NDRG1 mRNA, set 1 = 0.311.
For GCDH (GeneID 2639), the entry reads BNIP3L mRNA, set 1 = 0.104; NDRG1 mRNA, set 1 = 0.154.
After knock-down of TNFSF13 (GeneID 8741), the record shows BNIP3L mRNA, set 1 = 0.0544; NDRG1 mRNA, set 1 = 0.158.
ZBTB22 (GeneID 9278) gave BNIP3L mRNA, set 1 = 0.157; NDRG1 mRNA, set 1 = 0.0732.
RBM3 (GeneID 5935) gave BNIP3L mRNA, set 1 = 0.109; NDRG1 mRNA, set 1 = 1.26.
TAS2R9 (GeneID 50835) gave BNIP3L mRNA, set 1 = 0.0674; NDRG1 mRNA, set 1 = 0.362.
After knock-down of DARS2 (GeneID 55157), the screen gave BNIP3L mRNA, set 1 = 0.0606; NDRG1 mRNA, set 1 = 0.0955.
Knock-down of KCNG2 (GeneID 26251) resulted in: BNIP3L mRNA, set 1 = 0.106; NDRG1 mRNA, set 1 = 0.432.
Depletion of SLC22A3 (GeneID 6581) came out at: BNIP3L mRNA, set 1 = 0.0786; NDRG1 mRNA, set 1 = 0.318.
For DNAJC10 (GeneID 54431), the entry reads BNIP3L mRNA, set 1 = 0.101; NDRG1 mRNA, set 1 = 0.249.
After knock-down of GSPT2 (GeneID 23708), the record shows BNIP3L mRNA, set 1 = 0.15; NDRG1 mRNA, set 1 = 0.327.
KCNE2 (GeneID 9992) showed BNIP3L mRNA, set 1 = 0.085; NDRG1 mRNA, set 1 = 0.315.
After knock-down of AKAP13 (GeneID 11214) the results were BNIP3L mRNA, set 1 = 0.0544; NDRG1 mRNA, set 1 = 0.265.
Against LTB (GeneID 4050) the deposit lists BNIP3L mRNA, set 1 = 0.101; NDRG1 mRNA, set 1 = 0.255.
Against LY6K (GeneID 54742) the deposit lists BNIP3L mRNA, set 1 = 0.188; NDRG1 mRNA, set 1 = 0.142.
With knock-down of SEC14L5 (GeneID 9717), the record shows BNIP3L mRNA, set 1 = 0.204; NDRG1 mRNA, set 1 = 0.158.
For KLF3 (GeneID 51274), the entry reads BNIP3L mRNA, set 1 = 0.121; NDRG1 mRNA, set 1 = 0.15.
